107 sequences from PubChem BioAssay AID1508600 (Functional Genomics Laboratory (NCATS/FGL), 2020) can be followed below.

Hit rate of the full screen: of about 53,000 sequences, about 3,700 (7%) were called active.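 The calls were made as follows: active = gene knockdowns whose robust z-score for IL-1 alpha signal is at least 2 or at most -2, so actives lie on both sides; inactive = the rest.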 The list shows a part of the results.

The assay in a line: Components of the Cytosolic LPS Sensing Pathway: Gene Identification via Genome-wide siRNA Screen.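 Also: robust z of the log signal after scaling to non-targeting control siRNA wells of the plate.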 Conditions: RAW264.7 macrophages, IL-1a HTRF, actives lie on both sides, screened at 100 nM (by protocol), cells primed 5 h with Pam3CSK4 first. Summed up:
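Mouse macrophage line RAW264.7 is transfected with siRNA (100 nM final), grown 48h, primed with TLR ligand Pam3CSK4 5 h and given intracellular LipidA 24 h. IL-1a in supernatant is read by HTRF and viability by luminescence.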
Take GGUUUUCACCAUAUGCAGCTT against Zfp353-ps: the z-score is inactive: 0.267.

In the case of CCCUGUACGUUGUCUAUAATT against Olfml3, the z-score is inactive: 0.305.

In the case of GGAUAAGAAGAUGAGGCAGTT against Mns1, the z-score was inactive: -0.0977.

On to GCCUAUCGAAAAGUCUUGGTT against Adcyap1, for which the z-score is inactive: 0.875.

Consider GGUGCAAUCAAAUGGAAUUTT against Nrf1, for which the z-score is active: 3.75.

Take GGUUGUCAAUGAAAUGUGCTT against Cpxm2: the z-score is inactive: 1.52.

Consider GGAUCACCUAACGUAAUGGTT against Phlda1, for which the z-score is inactive: -1.31.

As for GCGAGAGUGAAAACAUCCATT against Fam78b, the z-score was inactive: 0.331.

For the sequence GCUCUCACCAUCAGAGAAATT against Trpc4, the z-score is inactive: -0.12.

Regarding GCCCAUUAUGGUUAAAGAATT against Ccnb3, the z-score was inactive: -0.311.

On to GCACCACUCUUUGUAAUAUTT against Olfr1046, for which the z-score is inactive: 0.969.

Regarding GCACUUUCACUGACCUAGATT against Gtf2e1, the z-score was inactive: -0.638.

As for GGGCAUGUUUAACGACAUUTT against Csf2ra, the z-score was inactive: 1.49.

Consider GCGACAUAACUGCAUUCAATT against Kcnh1, for which the z-score was active: 2.79.

For the sequence GGAUUUCAAAUGGAAACAATT against Vmn1r45, the z-score was inactive: -1.15.

With CCGUUGAUAUCCACAUGAATT against Plod3, the z-score is inactive: 1.97.

As for GGCUCUUGUGGUUUUUGUCTT against Olfr213, the z-score is inactive: -0.221.

In the case of “GCUGUAUCUGUGUCAGAACTT against 1700001O22Rik”, the z-score was inactive: -0.367.

On to GCCAUUAGCCUGCUACCUGTT against Ttc36, for which the z-score was inactive: 0.193.

For the sequence GGCGGAUGAACAAAGUUGGTT against Polr1e, the z-score is inactive: 0.0863.

On to GGAAAAAGAGAAAAAUCGCTT against Slc16a2, for which the z-score was inactive: -0.394.

For GUCGAUCAACUCUAGGCUCTT against Rpl30, the z-score is inactive: 0.487.

Regarding GGAGGUGAUAAAUAGUGUCTT against Ubox5, the z-score was inactive: -0.623.

Take CCAGUUCGAAGACCGUAUUTT against Tceal1: the z-score was inactive: 0.517.

GGUACUUGGUUUGAGUGGATT against Serpinb8: the z-score was inactive: 0.419.

As for GGUGCCACAGUUUACAUUATT against Dhrs1, the z-score is inactive: -0.329.

Consider GGACCGAUUCCACUUCAAUTT against Crygd, for which the z-score was inactive: 1.46.

As to GGGUUACCAACGACAGUGGTT against Cldn11, the z-score was inactive: -0.027.

Take GCUUUAUUAACCCAUCAAATT against Wdr78: the z-score was inactive: -0.136.

For the sequence GGUCUGGUGGAGUUGAGAATT against Ccdc80, the z-score was inactive: -0.617.

In the case of GGCACAGAAAUUAUGUUCUTT against Slc25a35, the z-score is inactive: 1.51.

Regarding GCAGUCACCUUCAAAAAAATT against Zfp960, the z-score was inactive: 1.08.

Consider GGAUGUGUCUCACUUCUUGTT against Th, for which the z-score is inactive: -1.5.

With GGUCAUUCAGAUUCUCGGATT against Itpa, the z-score is inactive: 0.0974.

Turning to GGAAUUUGUCUCCUGGCCUTT against Olfr1120, the z-score was inactive: 1.68.

For the sequence GGAGGAAUUCUUGAAGAUUTT against Ptpn7, the z-score is inactive: 0.198.

With GCUUGCUGACCUGAAGUGATT against Krt17, the z-score is inactive: 0.262.

In the case of GGGAAAAAAAAAAAUCACCTT against Syne3, the z-score was inactive: -0.254.

For GGUCUUGGUGUAUAACAACTT against Polr1c, the z-score was inactive: -0.355.

With CGUAGCUGCCGUCAACUCUTT against Slc2a5, the z-score is inactive: -0.753.

Regarding GCAGUUCAACACUCAACUUTT against Grpr, the z-score was inactive: -0.905.

As for GGACAUACAGUGAUGAGGCTT against Rab11fip5, the z-score is inactive: 0.246.

GGUGUGUUCCCAACUGGUGTT against Olfr1124: the z-score was active: 2.04.

For GCUCUGAUCAUUUGACUUGTT against Ovca2, the z-score is inactive: 0.128.

Take CCAAAGCUGAAGAUUUUGGTT against Man1b1: the z-score was inactive: 0.834.

As to GGCAAAACUGACGUAAACUTT against Gpx4, the z-score was inactive: 1.09.

In the case of GUUGCCUAUCAUUUGUAGATT against Olfr1052, the z-score is inactive: 0.76.

For the sequence GGCAGACAGUCUAACAGAUTT against Krt6a, the z-score is inactive: 0.283.

With GGCAAGGACUUCAACAAGATT against Proser2, the z-score was inactive: -0.495.

As to GGCCAUAUCGUUCACUCACTT against Slc18a3, the z-score is inactive: 1.04.

As for GGUGGUGAUAUUUAUUGUGTT against Olfr1, the z-score is inactive: 1.22.

On to GGAAAAGAAAUGAUGGAGUTT against Dnajc9, for which the z-score is inactive: 0.176.

Consider GGCCUCAUCAUGUGUUCAATT against App, for which the z-score was inactive: -1.24.

Take CGUUAAGAGUCCAAGUGAATT against Nectin4: the z-score was inactive: -0.016.

On to GGAGAGGUUUAGUAAUUACTT against Trim21, for which the z-score was inactive: -0.918.

Consider GGAGCCUGUUCCAGAAUUGTT against Bcl7c, for which the z-score is inactive: 0.716.

Take CCUAGCUCUCUAGAAUAGATT against Msn: the z-score was inactive: 1.43.

On to GCCCUAUCGUUCUGAAAUATT against Galc, for which the z-score was inactive: 0.295.

As to GGAGGAAGAAUAUGGAAAATT against Ptprz1, the z-score was inactive: 0.204.

Turning to GGUCCUUUGAUGCUGACUGTT against Sfrp4, the z-score is active: -2.07.

As for GCAGGAGAACAAAUCUAAUTT against Arhgap11a, the z-score was inactive: -1.65.

As to GCCCUACCAAAAGGAUGAUTT against Cfap300, the z-score is active: -2.02.

Turning to GCACUCACCAGUGAGUCAUTT against Cldn6, the z-score is inactive: -0.602.

Consider CCUGAUAAGUAUGAGUCCATT against Mag, for which the z-score is inactive: -0.709.

As to GGAACAAAGACUUCAAAGATT against Olfr323, the z-score was inactive: -0.249.

Take GGCGAUGUAAUGGAUGUUATT against Nck1: the z-score is inactive: -0.142.

With GGAGGUUUAAUAAAGGCUUTT against Gcn1, the z-score is inactive: 1.41.

“GGUGAUCUGUAGGAACACATT against 9530053A07Rik”: the z-score is inactive: -0.546.

GCAACUUGACCAGGAAUAUTT against Ddx52: the z-score is inactive: 1.94.

Regarding GGAGAUGAGGUGAAGUGGATT against Acsm4, the z-score is inactive: -0.213.

As to CCUUCUUGUGAAUUUACCUTT against Rps6kc1, the z-score is inactive: -0.0992.

Take GGAGGACCAUUGAAUUAUGTT against Ccdc184: the z-score was inactive: 0.22.

As to GGCUGUGGAAAUGUUUAUUTT against Cirbp, the z-score was inactive: 0.707.

With GGGUUGAUUAGUGGAGUGATT against H2-Bl, the z-score was inactive: -0.232.

As to GGAAAAAAUGGAAAACUGGTT against Polr1b, the z-score is inactive: -0.965.

For the sequence GGGAUUUUCAAAGUGAGAATT against Pmaip1, the z-score was inactive: -0.502.

For the sequence CGUCUGUUUACCUCAUGAATT against Arid3a, the z-score was inactive: -0.769.

As for GGUCAAUCUUUGGAGUAUUTT against Stk39, the z-score is inactive: -0.129.

As for CCAGAGGUAUUGAGAGUAATT against Apobr, the z-score is inactive: -0.651.

GGUUUGUCAGGUUCUAAAATT against Atf1: the z-score is active: 2.34.

Regarding GGAGCUGCGCAGUUUAGAATT against Rab24, the z-score was inactive: 1.29.

On to GGUGAAAGGUUCUUUAACCTT against Lman1l, for which the z-score was inactive: 0.079.

“GCUCAGCUCAAAUGCGGUUTT against 4931431C16Rik”: the z-score was inactive: 0.992.

As for CUGUGGACUUCCCUAAGAATT against Nms, the z-score was inactive: -0.775.

Consider GGGAGCAAAUGUAAUUUAUTT against Tbpl1, for which the z-score was inactive: 0.842.

In the case of GCUAGGAUUAAUGAGGAAATT against Cul3, the z-score is inactive: 0.318.

As to GGAGAAACCAAAAUGGAAATT against Ubtd2, the z-score is inactive: -0.57.

For the sequence GGAUUCAUAACAAAACGAGTT against Tmem178, the z-score was inactive: 1.53.

With GGUUUUGAAUACAAAAAGGTT against Copg2, the z-score is inactive: -0.839.

GCACUUUGACAUUUUGGUATT against Arl4c: the z-score was inactive: -0.0352.

On to GGACCAUCACACACAUUGATT against Mrap, for which the z-score was inactive: 1.08.

“GCUAGUGAUACAAUGUUUUTT against 9630028B13Rik”: the z-score was inactive: 0.738.

As to GGAGGAAGACCUGAAGAAGTT against Gck, the z-score is inactive: -1.07.

Take GGCCAUAGCAUCUUGUUCUTT against Supt4a: the z-score is inactive: 1.45.

GGAAAAGGAAACCCAGAGCTT against Tdg: the z-score was active: -2.4.

In the case of CGCGGAGUCACUACUAGAGTT against Klhl25, the z-score is inactive: 0.28.

Take CCGGGAAACCAACAAAUCATT against Rbmxl1: the z-score was active: 2.19.

As for GGGAUGAAUUGGUUGUUUATT against Large1, the z-score is inactive: 0.838.

Regarding “GGAUCCACAACUCCAGCUUTT against 3300002I08Rik”, the z-score was inactive: 0.414.

For the sequence GGUUUAUCUAUCCAGUUUUTT against Pigb, the z-score is inactive: -0.464.

For the sequence CCUUCCUAUGUGAUAACCGTT against Nlrp4c, the z-score is inactive: 0.474.

As for CCCAGUAUCAGACUAUCAUTT against Inpp4a, the z-score was inactive: -0.178.

Take GGGAUUGUCAUAGUAACAUTT against Phyhip: the z-score was inactive: 1.11.

As to GCAUUUACAUUGGAUUAGGTT against Ubxn7, the z-score was inactive: 0.35.

In the case of CCCUGGGACUUUCCUAGUGTT against Glt8d2, the z-score was inactive: -0.537.

With GGAGUAUUUCCAAACCUAUTT against Sdr9c7, the z-score was inactive: 0.828.

Consider GCAGUUUGCACGAGAUCGATT against Ppp1r15a, for which the z-score is inactive: -0.62.
